{"source": "paper PMC6613765", "about": "(Journal of Virology, 2019)", "key": {"in vitro [1]": {"assay": "in vitro"}, "in vitro [2]": {"assay": "in vitro", "conditions": "mouse"}}, "note": "Where two headings read alike, the source gives them in different places.", "data": [{"molecule": "Cc1cc(/C=C/c2ccc3cc(N(C)C)ccc3[n+]2C)c(C)n1-c1ccccc1", "note": "[Pyrvinium pamoate]", "values": [{"measurement": "CC50", "setting": "in vitro [1]", "value": "> 19", "unit": "µM"}, {"measurement": "CC50", "setting": "in vitro [2]", "value": 20, "unit": "µM"}]}]}
